# Measured values published in PMC5656747.
# Chains of the proteins cited; added tags and fusions are not shown.
# UniProt O15169: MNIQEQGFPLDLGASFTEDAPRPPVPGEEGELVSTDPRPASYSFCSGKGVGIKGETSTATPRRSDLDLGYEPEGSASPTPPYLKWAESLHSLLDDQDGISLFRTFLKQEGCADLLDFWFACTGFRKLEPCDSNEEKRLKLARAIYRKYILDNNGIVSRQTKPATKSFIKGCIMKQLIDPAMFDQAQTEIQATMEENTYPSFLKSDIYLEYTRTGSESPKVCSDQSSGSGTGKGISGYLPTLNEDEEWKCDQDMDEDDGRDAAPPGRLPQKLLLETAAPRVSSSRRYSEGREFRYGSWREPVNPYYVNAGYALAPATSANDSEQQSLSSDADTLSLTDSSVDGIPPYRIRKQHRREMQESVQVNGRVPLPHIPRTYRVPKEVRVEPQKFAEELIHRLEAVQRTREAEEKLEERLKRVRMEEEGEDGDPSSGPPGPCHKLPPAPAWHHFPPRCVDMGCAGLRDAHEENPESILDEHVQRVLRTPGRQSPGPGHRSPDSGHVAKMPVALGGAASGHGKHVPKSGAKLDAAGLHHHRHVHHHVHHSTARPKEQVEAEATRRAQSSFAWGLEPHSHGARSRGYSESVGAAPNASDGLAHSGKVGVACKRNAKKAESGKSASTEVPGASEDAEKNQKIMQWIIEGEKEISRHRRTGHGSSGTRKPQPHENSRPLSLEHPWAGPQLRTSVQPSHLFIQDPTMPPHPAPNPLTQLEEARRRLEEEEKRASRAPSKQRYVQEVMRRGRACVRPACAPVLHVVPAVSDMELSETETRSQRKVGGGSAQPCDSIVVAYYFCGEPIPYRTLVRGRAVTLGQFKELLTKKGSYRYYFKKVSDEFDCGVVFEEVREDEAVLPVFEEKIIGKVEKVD
# UniProt Q93009: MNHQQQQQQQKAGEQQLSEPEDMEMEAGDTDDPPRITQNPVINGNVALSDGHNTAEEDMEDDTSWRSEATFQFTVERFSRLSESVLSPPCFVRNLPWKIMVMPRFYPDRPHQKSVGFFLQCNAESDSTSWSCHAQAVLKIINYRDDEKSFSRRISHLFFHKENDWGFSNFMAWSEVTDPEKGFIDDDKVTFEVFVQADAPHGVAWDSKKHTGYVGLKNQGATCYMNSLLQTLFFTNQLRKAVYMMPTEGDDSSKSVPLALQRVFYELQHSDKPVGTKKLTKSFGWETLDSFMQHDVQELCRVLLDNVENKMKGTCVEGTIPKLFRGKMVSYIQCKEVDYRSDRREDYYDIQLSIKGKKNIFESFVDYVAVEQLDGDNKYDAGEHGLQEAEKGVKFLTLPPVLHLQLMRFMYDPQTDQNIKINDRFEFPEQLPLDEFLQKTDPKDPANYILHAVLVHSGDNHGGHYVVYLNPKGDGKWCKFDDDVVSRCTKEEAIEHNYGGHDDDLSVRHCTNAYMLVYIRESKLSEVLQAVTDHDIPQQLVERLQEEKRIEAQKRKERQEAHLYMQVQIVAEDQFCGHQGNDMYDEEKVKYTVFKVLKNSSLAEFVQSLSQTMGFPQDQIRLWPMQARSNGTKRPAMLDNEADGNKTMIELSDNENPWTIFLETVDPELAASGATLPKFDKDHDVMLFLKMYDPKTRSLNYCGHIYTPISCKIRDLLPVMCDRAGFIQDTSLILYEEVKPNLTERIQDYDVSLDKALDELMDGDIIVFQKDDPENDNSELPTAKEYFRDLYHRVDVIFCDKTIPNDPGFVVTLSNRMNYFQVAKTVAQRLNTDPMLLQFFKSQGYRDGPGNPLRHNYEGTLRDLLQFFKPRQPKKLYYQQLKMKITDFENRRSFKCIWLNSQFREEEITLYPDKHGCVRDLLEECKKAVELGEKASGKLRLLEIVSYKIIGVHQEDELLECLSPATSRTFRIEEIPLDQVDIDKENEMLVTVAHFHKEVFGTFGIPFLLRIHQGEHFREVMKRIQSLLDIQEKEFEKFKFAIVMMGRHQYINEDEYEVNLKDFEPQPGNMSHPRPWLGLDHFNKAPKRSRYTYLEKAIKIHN
# UniProt P35222: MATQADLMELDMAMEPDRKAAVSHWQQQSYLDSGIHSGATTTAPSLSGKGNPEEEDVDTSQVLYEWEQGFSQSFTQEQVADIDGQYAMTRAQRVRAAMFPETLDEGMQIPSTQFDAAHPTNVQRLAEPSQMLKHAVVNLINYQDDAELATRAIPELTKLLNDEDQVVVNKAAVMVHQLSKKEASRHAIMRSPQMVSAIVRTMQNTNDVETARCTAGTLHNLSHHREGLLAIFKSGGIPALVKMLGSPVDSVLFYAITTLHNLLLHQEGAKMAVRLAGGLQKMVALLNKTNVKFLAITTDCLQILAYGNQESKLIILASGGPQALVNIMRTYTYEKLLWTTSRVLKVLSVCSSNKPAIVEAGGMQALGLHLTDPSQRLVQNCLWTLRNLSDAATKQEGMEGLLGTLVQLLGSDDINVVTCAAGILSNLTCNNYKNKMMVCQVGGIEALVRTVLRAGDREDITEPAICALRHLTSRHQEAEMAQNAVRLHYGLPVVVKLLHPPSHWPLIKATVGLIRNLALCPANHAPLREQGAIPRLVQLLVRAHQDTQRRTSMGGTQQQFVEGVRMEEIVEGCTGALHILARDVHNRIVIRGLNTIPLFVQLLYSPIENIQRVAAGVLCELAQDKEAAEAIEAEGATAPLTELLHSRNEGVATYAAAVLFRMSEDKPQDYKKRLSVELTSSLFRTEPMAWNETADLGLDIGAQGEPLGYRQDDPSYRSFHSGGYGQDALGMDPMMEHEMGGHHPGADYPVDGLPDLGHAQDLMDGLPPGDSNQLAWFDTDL
# Where two headings read alike, the source gives them in different places. These are yes or no findings as the source states them, for the method shown. Binding seen in cells or lysates may run through a third protein. Some binding calls cover weakened binding; strength is not graded here.
# B1: E3 ligase RNF220 (protein, UniProt Q5VTB9 1-566)
# chain: MDLHRAAFKMENSSYLPNPLASPALMVLASTAEASRDASIPCQQPRPFGVPVSVDKDVHIPFTNGSYTFASMYHRQGGVPGTFANRDFPPSLLHLHPQFAPPNLDCTPISMLNHSGVGAFRPFASTEDRESYQSAFTPAKRLKNCHDTESPHLRFSDADGKEYDFGTQLPSSSPGSLKVDDTGKKIFAVSGLISDREASSSPEDRNDRCKKKAAALFDSQAPICPICQVLLRPSELQEHMEQELEQLAQLPSSKNSLLKDAMAPGTPKSLLLSASIKREGESPTASPHSSATDDLHHSDRYQTFLRVRANRQTRLNARIGKMKRRKQDEGQREGSCMAEDDAVDIEHENNNRFEEYEWCGQKRIRATTLLEGGFRGSGFIMCSGKENPDSDADLDVDGDDTLEYGKPQYTEADVIPCTGEEPGEAKEREALRGAVLNGGPPSTRITPEFSKWASDEMPSTSNGESSKQEAMQKTCKNSDIEKITEDSAVTTFEALKARVRELERQLSRGDRYKCLICMDSYSMPLTSIQCWHVHCEECWLRTLGAKKLCPQCNTITAPGDLRRIYL
# Tests used:
# [1] = target: AXIN1 (human (endogenous in HEK293T)) (UniProt O15169); assay: co-IP; endogenous AXIN1 immunoprecipitated with AXIN1-specific antibody from HEK293T WT and CRISPR-targeted APC-truncated lines (also APC4 with RNF220 or USP7 CRISPR targeting); cells pre-treated with 10 μM MG132 for 4 hr; western blot
# [2] = target: AXIN1 (human (endogenous in HEK293T)) (UniProt O15169); assay: as above; remark: listed apart in the source
Molecule,binding [1],binding [2]
USP7 (ubiquitin-specific peptidase 7) (from UniProt Q93009 1-1102) (enzyme),binds,–
β-catenin (from UniProt P35222 1-781),binds,–
B1,–,no binding
